# From PubChem BioAssay AID1439 (NMMLSC, 2008)
# By UniProt entry, the sequences of proteins in these tests, tags left out.
# UniProt P09471, whole entry, looked up: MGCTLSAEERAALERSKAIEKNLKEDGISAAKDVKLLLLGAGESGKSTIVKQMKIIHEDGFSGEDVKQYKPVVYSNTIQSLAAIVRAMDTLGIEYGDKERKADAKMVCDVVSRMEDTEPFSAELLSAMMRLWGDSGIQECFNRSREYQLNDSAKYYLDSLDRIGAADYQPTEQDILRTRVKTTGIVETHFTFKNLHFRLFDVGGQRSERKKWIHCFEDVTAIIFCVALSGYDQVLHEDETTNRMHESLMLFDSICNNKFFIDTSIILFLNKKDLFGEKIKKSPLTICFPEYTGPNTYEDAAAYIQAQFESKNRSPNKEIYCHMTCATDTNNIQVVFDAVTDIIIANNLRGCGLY
# Out of some 220,000 compounds screened, about 770 (0.35%) were called active. Inconclusive means that the source gave no clear call. Such entries were picked first, then a sample of the others. Rule as the data show it: active = binding response below about 49% or above about 150%; inconclusive = no clear call, values can overlap the other calls; inactive = in between.
# Molecular target: Guanine nucleotide-binding protein G(o) subunit alpha (Homo sapiens) (UniProt P09471)
# Assay: RGS7-Galphao binding modulators, primary screen, biochemical, multiplexed bead flow cytometry (AID 1439);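 also: fluorescent Galphao held in activated GDP-AlF4 state binding bead-coupled RGS7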
# Details: at 10 µM, actives lie on both sides
row,Structure (SMILES),binding response (% of control)
1,Cc1ccc(Sc2cc(NCCCO)c([N+](=O)[O-])c3nonc23)cc1,inconclusive: 87.2%
2,NC(=O)CC(NC(=O)Cc1cccc2ccccc12)c1ccc(NCCc2ccccc2F)c([N+](=O)[O-])c1 (stereo not given),inconclusive: 88.6%
3,Cc1cccc(NCCC(=O)c2ccc([N+](=O)[O-])cc2)c1C,inconclusive: 102%
4,COC(=O)c1ccc(Cn2nc([N+](=O)[O-])c(Br)c2C)cc1,inconclusive: 207%
5,COc1ccc(N2CCN(c3ncnc4c3nnn4Cc3ccccc3Cl)CC2)cc1,inactive: 103%
6,Cc1ccc(N2C(=O)C3C4C=CC(CNC(=S)N5CCN(c6ccccc6)CC5)(O4)C3C2=O)cc1 (stereo not given),inconclusive: 119%
7,O=C(CCCOc1ccccc1)N1CCN(c2ccc(F)cc2)CC1,inactive: 102%
8,COc1cc(OC)c(/C=N/NC(=O)Cn2nc([N+](=O)[O-])cc2C)c(OC)c1,inconclusive: 142%
9,O=C(Nc1cc(S(=O)(=O)N2CCCCC2)ccc1N1CCCCC1)c1ccncc1,inconclusive: 146%
10,O=S(=O)(c1cccc(F)c1)N1CCN(C(=S)NCc2ccccc2)CC1,inactive: 100%
11,Cc1ccc(S(=O)(=O)N(CC(=O)N2CCCCCC2)c2ccccc2)cc1,inactive: 98.5%
12,COC(=O)c1cc(NS(=O)(=O)c2ccc(Cl)c(N3C(=O)c4ccc(C(=O)O)cc4C3=O)c2)cc(C(=O)OC)c1,inconclusive: 96.9%
13,CC(C)[C@H](NC(=O)c1ccccc1)C(=O)OCC(=O)NCCC1=CCCCC1,inactive: 129%
14,CSc1cccc(NC(=O)Cc2ccccc2[N+](=O)[O-])c1,inconclusive: 140%
15,c1ccc2sc(NN=C3CCCCCC3)nc2c1,inconclusive: 87.7%
16,COc1ccc(NC(=O)C2CC(=O)N/C(=N/N=C/c3ccccc3)S2)cc1 (stereo not given),inconclusive: 79.3%
17,O=C(Nc1ncccn1)C12CC3CC(CC(C3)C1)C2,inconclusive: 141%
18,COc1cc(C(=O)O/N=C(\N)c2cccc([N+](=O)[O-])c2)cc(OC)c1OC,inconclusive: 70.2%
19,Cc1cc(C(=O)Nc2ccc(N3CCOCC3)c(Cl)c2)c(C)o1,inconclusive: 102%
20,CCN(CC)c1ccc(NC(=O)C2CCC(CNc3c(N4CCCC4)c(=O)c3=O)CC2)c(C)c1 (stereo not given),inconclusive: 97.6%
21,COCCNc1ccc(S(=O)(=O)N2CCCC2)cn1,inconclusive: 81.8%
22,c1ccc(SSc2ccccc2)cc1,inactive: 105%
23,O=C(COC(=O)Cc1ccsc1)Nc1ccc(Cl)c(S(=O)(=O)N2CCOCC2)c1,inactive: 105%

row,Structure (SMILES),binding response (% of control)
1,O=C(Nc1cc(S(=O)(=O)N2CCOCC2)ccc1N1CCOCC1)c1cn2ccccc2n1,inconclusive: 85.4%
2,O=C(COC(=O)Cc1cccc(C(F)(F)F)c1)Nc1ccc2c(c1)OCCO2,inactive: 81.2%
3,O=C(Nc1cccc([N+](=O)[O-])c1)C1C2CC/C=C\CCC21 (stereo not given),inconclusive: 104%
4,O=C(Nc1nnc(-c2ccccc2)o1)c1nc2ccccc2s1,inconclusive: 111%
5,CC(C)(C)S(=O)(=O)/C(C#N)=C/c1sccc1C1OCCO1,inconclusive: 104%
6,COc1ccc(-n2c3c(cc(C(=O)NNc4ccccc4C)c2=O)C(=O)CC(C)(C)C3)cc1,inactive: 92.2%
7,Cc1ccc2cc(C)c(Sc3nnnn3-c3ccccc3)nc2c1,inactive: 106%
8,O=C(Nc1ccc(Cl)cc1Cl)NC1CCN(S(=O)(=O)c2ccc(F)cc2)CC1,inconclusive: 73.9%
9,Cc1ccccc1C(=O)NCC(=O)O,inactive: 102%
10,CSCCC(C(=O)OC1CCOC1=O)N1C(=O)c2ccccc2C1=O (stereo not given),inactive: 95.7%
11,Cc1ccc(C2(CCNCc3ccco3)CCOC(C(C)C)C2)cc1 (stereo not given),inconclusive: 95.3%
12,COc1ccccc1NC(=S)NCc1ccc(S(N)(=O)=O)cc1,inactive: 95.7%
13,O=C(CSCc1ccccc1)Nc1cccc(C(=O)Nc2ccc(C(=O)O)cc2)c1,inactive: 117%
14,Cc1cc(C)c2cc(C(=O)N3CCc4ccccc4C3)[nH]c2c1,inconclusive: 59.9%
15,COCCN(CCOC)C(=O)C1CCCN(S(=O)(=O)c2ccc(NC(=O)OC)cc2)C1 (stereo not given),inconclusive: -78%
16,Cc1c(NC(=O)Cc2cccs2)cccc1[N+](=O)[O-],inconclusive: 57.5%
17,CCOc1ccc(-c2nc(CSc3nncs3)cs2)cc1OC,inactive: 103%
18,O=C(CN1C(=O)c2ccccc2C1=O)Nc1ccccc1N1CCOCC1,inconclusive: 87.8%
19,COc1ccccc1OCC(=O)/C=C1/N(C)c2ccccc2C1(C)C,inconclusive: 113%
20,C=CCNC(=O)c1ccc(OC)cc1,inconclusive: 55.2%
21,N/C(Cc1ccc([N+](=O)[O-])cc1)=N\OC(=O)c1cccc(Br)c1,inconclusive: 110%
22,CCOC(=O)/C(C#N)=N/Nc1c(C)n(C)n(-c2ccccc2)c1=O,inactive: 103%

# Two entries picked at random from those above, as already listed:
row,Structure (SMILES),binding response (% of control)
1,Cc1ccc(Sc2cc(NCCCO)c([N+](=O)[O-])c3nonc23)cc1,inconclusive: 87.2%
7,O=C(CCCOc1ccccc1)N1CCN(c2ccc(F)cc2)CC1,inactive: 102%
